Source: patent publication US12099068B2, “Biomarkers for graft-versus-host disease” (Incyte Corporation, priority 2018, dated 2024)

B1: CDSN (protein, UniProt Q15517 33-529, looked up)
Corneodesmosin: KSIGTFSDPCKDPTRITSPNDPCLTGKGDSSGFSSYSGSSSSGSSISSARSSGGGSSGSSSGSSIAQGGSAGSFKPGTGYSQVSYSSGSGSSLQGASGSSQLGSSSSHSGNSGSHSGSSSSHSSSSSSFQFSSSSFQVGNGSALPTNDNSYRGILNPSQPGQSSSSSQTFGVSSSGQSVSSNQRPCSSDIPDSPCSGGPIVSHSGPYIPSSHSVSGGQRPVVVVVDQHGSGAPGVVQGPPCSNGGLPGKPCPPITSVDKSYGGYEVVGGSSDSYLVPGMTYSKGKIYPVGYFTKENPVKGSPGVPSFAAGPPISEGKYFSSNPIIPSQSAASSAIAFQPVGTGGVQLCGGGSTGSKGPCSPSSSRVPSSSSISSSSGLPYHPCGSASQSPCSPPGTGSFSSSSSSQSSGKIILQPCGSKSSSSGHPCMSVSSLTLTGGPDGSPHPDPSAGAKPCGSSSAGKIPCRSIRDILAQVKPLGPQLADPEVFLPQGELLNSP
B2: DRAXIN (protein, UniProt Q8NBI3 26-349, looked up)
Draxin: GALAPGTPARNLPENHIDLPGPALWTPQASHHRRRGPGKKEWGPGLPSQAQDGAVVTATRQASRLPEAEGLLPEQSPAGLLQDKDLLLGLALPYPEKENRPPGWERTRKRSREHKRRRDRLRLHQGRALVRGPSSLMKKAELSEAQVLDAAMEESSTSLAPTMFFLTTFEAAPATEESLILPVTSLRPQQAQPRSDGEVMPTLDMALFDWTDYEDLKPDGWPSAKKKEKHRGKLSSDGNETSPAEGEPCDHHQDCLPGTCCDLREHLCTPHNRGLNNKCFDDCMCVEGLRCYAKFHRNRRVTRRKGRCVEPETANGDQGSFINV
B3: N2DL-2 (protein, UniProt Q9BZM5 26-217, looked up)
UL16-binding protein 2: GRADPHSLCYDITVIPKFRPGPRWCAVQGQVDEKTFLHYDCGNKTVTPVSPLGKKLNVTTAWKAQNPVLREVVDILTEQLRDIQLENYTPKEPLTLQARMSCEQKAEGHSSGSWQFSFDGQIFLLFDSEKRMWTTVHPGARKMKEKWENDKVVAMSFHYFSMGDCIGWLEDFLMGMDSTLEPSAGAPLAMSS
B4: TIMP4 (protein, UniProt Q99727 30-224, looked up)
Metalloproteinase inhibitor 4: CSCAPAHPQQHICHSALVIRAKISSEKVVPASADPADTEKMLRYEIKQIKMFKGFEKVKDVQYIYTPFDSSLCGVKLEANSQKQYLLTGQVLSDGKVFIHLCNYIEPWEDLSLVQRESLNHHYHLNCGCQITTCYTVPCTISAPNECLWTDWLLERKLYGYQAQHYVCMKHVDGTCSWYRGHLPLRKEFVDIVQP
B5: MFAP5 (protein, UniProt Q13361 22-173, looked up)
Microfibrillar-associated …: IPLGVNSQRGDDVTQATPETFTEDPNLVNDPATDETVLAVLADIAPSTDDLASLSEKNTTAECWDEKFTCTRLYSVHRPVKQCIHQLCFTSLRRMYIVNKEICSRLVCKEHEAMKDELCRQMAGLPPRRLRRSNYFRLPPCENVDLQRPNGL
B6: ENTPD2 (protein, UniProt Q9Y5L3 1-495, looked up)
Ectonucleoside triphosphate …: MAGKVRSLLPPLLLAAAGLAGLLLLCVPTRDVREPPALKYGIVLDAGSSHTSMFIYKWPADKENDTGIVGQHSSCDVPGGGISSYADNPSGASQSLVGCLEQALQDVPKERHAGTPLYLGATAGMRLLNLTNPEASTSVLMAVTHTLTQYPFDFRGARILSGQEEGVFGWVTANYLLENFIKYGWVGRWFRPRKGTLGAMDLGGASTQITFETTSPAEDRASEVQLHLYGQHYRVYTHSFLCYGRDQVLQRLLASALQTHGFHPCWPRGFSTQVLLGDVYQSPCTMAQRPQNFNSSARVSLSGSSDPHLCRDLVSGLFSFSSCPFSRCSFNGVFQPPVAGNFVAFSAFFYTVDFLRTSMGLPVATLQQLEAAAVNVCNQTWAQLQARVPGQRARLADYCAGAMFVQQLLSRGYGFDERAFGGVIFQKKAADTAVGWALGYMLNLTNLIPADPPGLRKGTDFSSWVVLLLLFASALLAALVLLLRQVHSAKLPSTI
B7: ALDH3A1 (protein, UniProt P30838 2-453, looked up)
Aldehyde dehydrogenase, …: SKISEAVKRARAAFSSGRTRPLQFRIQQLEALQRLIQEQEQELVGALAADLHKNEWNAYYEEVVYVLEEIEYMIQKLPEWAADEPVEKTPQTQQDELYIHSEPLGVVLVIGTWNYPFNLTIQPMVGAIAAGNSVVLKPSELSENMASLLATIIPQYLDKDLYPVINGGVPETTELLKERFDHILYTGSTGVGKIIMTAAAKHLTPVTLELGGKSPCYVDKNCDLDVACRRIAWGKFMNSGQTCVAPDYILCDPSIQNQIVEKLKKSLKEFYGEDAKKSRDYGRIISARHFQRVMGLIEGQKVAYGGTGDAATRYIAPTILTDVDPQSPVMQEEIFGPVLPIVCVRSLEEAIQFINQREKPLALYMFSSNDKVIKKMIAETSSGGVAANDVIVHITLHSLPFGGVGNSGMGSYHGKKSFETFSHRRSCLVRPLMNDEGLKVRYPPSPAKMTQH
B8: CXADR (protein, UniProt P78310 20-365, looked up)
Coxsackievirus and adenovirus …: LSITTPEEMIEKAKGETAYLPCKFTLSPEDQGPLDIEWLISPADNQKVDQVIILYSGDKIYDDYYPDLKGRVHFTSNDLKSGDASINVTNLQLSDIGTYQCKVKKAPGVANKKIHLVVLVKPSGARCYVDGSEEIGSDFKIKCEPKEGSLPLQYEWQKLSDSQKMPTSWLAEMTSSVISVKNASSEYSGTYSCTVRNRVGSDQCLLRLNVVPPSNKAGLIAGAIIGTLLALALIGLIIFCCRKKRREEKYEKEVHHDIREDVPPPKSRTSTARSYIGSNHSSLGSMSPSNMEGYSKTQYNQVPSEDFERTPQSPTLPPAKVAAPNLSRMGAIPVMIPAQSKDGSIV
B9: DDAH1 (protein, UniProt O94760 2-285, looked up)
N(G),N(G)-dimethylarginine …: AGLGHPAAFGRATHAVVRALPESLGQHALRSAKGEEVDVARAERQHQLYVGVLGSKLGLQVVELPADESLPDCVFVEDVAVVCEETALITRPGAPSRRKEVDMMKEALEKLQLNIVEMKDENATLDGGDVLFTGREFFVGLSKRTNQRGAEILADTFKDYAVSTVPVADGLHLKSFCSMAGPNLIAIGSSESAQKALKIMQQMSDHRYDKLTVPDDIAANCIYLNIPNKGHVLLHRTPEEYPESAKVYEKLKDHMLIPVSMSELEKVDGLLTCCSVLINKKVDS
B10: IGFBP-1 (protein, UniProt P08833 26-259, looked up)
Insulin-like growth …: APWQCAPCSAEKLALCPPVSASCSEVTRSAGCGCCPMCALPLGAACGVATARCARGLSCRALPGEQQPLHALTRGQGACVQESDASAPHAAEAGSPESPESTEITEEELLDNFHLMAPSEEDHSILWDAISTYDGSKALHVTNIKKWKEPCRIELYRVVESLAKAQETSGEEISKFYLPNCNKNGFYHSRQCETSMDGEAGLCWCVYPWNGKRIPGSPEIRGDPNCQIYFNVQN
B11: BCAN (protein, UniProt Q96GW7 23-911, looked up)
Brevican core protein: DVLEGDSSEDRAFRVRIAGDAPLQGVLGGALTIPCHVHYLRPPPSRRAVLGSPRVKWTFLSRGREAEVLVARGVRVKVNEAYRFRVALPAYPASLTDVSLALSELRPNDSGIYRCEVQHGIDDSSDAVEVKVKGVVFLYREGSARYAFSFSGAQEACARIGAHIATPEQLYAAYLGGYEQCDAGWLSDQTVRYPIQTPREACYGDMDGFPGVRNYGVVDPDDLYDVYCYAEDLNGELFLGDPPEKLTLEEARAYCQERGAEIATTGQLYAAWDGGLDHCSPGWLADGSVRYPIVTPSQRCGGGLPGVKTLFLFPNQTGFPNKHSRFNVYCFRDSAQPSAIPEASNPASNPASDGLEAIVTVTETLEELQLPQEATESESRGAIYSIPIMEDGGGGSSTPEDPAEAPRTLLEFETQSMVPPTGFSEEEGKALEEEEKYEDEEEKEEEEEEEEVEDEALWAWPSELSSPGPEASLPTEPAAQEESLSQAPARAVLQPGASPLPDGESEASRPPRVHGPPTETLPTPRERNLASPSPSTLVEAREVGEATGGPELSGVPRGESEETGSSEGAPSLLPATRAPEGTRELEAPSEDNSGRTAPAGTSVQAQPVLPTDSASRGGVAVVPASGDCVPSPCHNGGTCLEEEEGVRCLCLPGYGGDLCDVGLRFCNPGWDAFQGACYKHFSTRRSWEEAETQCRMYGAHLASISTPEEQDFINNRYREYQWIGLNDRTIEGDFLWSDGVPLLYENWNPGQPDSYFLSGENCVVMVWHDQGQWSDVPCNYHLSYTCKMGLVSCGPPPELPLAQVFGRPRLRYEVDTVLRYRCREGLAQRNLPLIRCQENGRWEAPQISCVPRRPARALHPEEDPEGRQGRLLGRWKALLIPPSSPMPGP
B12: WNT9A (protein, UniProt O14904 30-365, looked up)
Protein Wnt-9a: YFGLTGSEPLTILPLTLEPEAAAQAHYKACDRLKLERKQRRMCRRDPGVAETLVEAVSMSALECQFQFRFERWNCTLEGRYRASLLKRGFKETAFLYAISSAGLTHALAKACSAGRMERCTCDEAPDLENREAWQWGGCGDNLKYSSKFVKEFLGRRSSKDLRARVDFHNNLVGVKVIKAGVETTCKCHGVSGSCTVRTCWRQLAPFHEVGKHLKHKYETALKVGSTTNEAAGEAGAISPPRGRASGAGGSDPLPRTPELVHLDDSPSFCLAGRFSPGTAGRRCHREKNCESICCGRGHNTQSRVVTRPCQCQVRWCCYVECRQCTQREEVYTCKG

Each molecule was assayed on plasma proteins (assay: OLINK proximity extension assay of baseline plasma, CR compared to PD/Death, updated classification, Example 5 (Table 11)). Conditions: itacitinib 200 or 300 mg QD plus corticosteroids, response at day 28.
Type: in vivo, human
B1 was tested, and the “Fold Change, Up-Regulated in CR Compared to PD/Death” value (from here on “Fold Change, Up-Regulated”) was 1.6718.
In the case of B2, the “Fold Change, Up-Regulated” value is reported as 1.6547.
B3 was tested, and the “Fold Change, Down-Regulated in CR Compared to PD/Death” value (“Fold Change, Down-Regulated” below) was −2.5399.
B4 was tested, and the “Fold Change, Up-Regulated” value was 1.5269.
B5 was tested, and the “Fold Change, Up-Regulated” value was 1.4911.
B6 was tested, and the “Fold Change, Down-Regulated” value was −2.1935.
In the case of B7, the “Fold Change, Down-Regulated” value is reported as −2.477.
For B8, the “Fold Change, Down-Regulated” value was −2.4672.
With B9 the “Fold Change, Down-Regulated” value was −2.5062.
With B10 the “Fold Change, Down-Regulated” value was −2.4965.
For B11, the “Fold Change, Up-Regulated” value was 1.6911.
With B12 the “Fold Change, Up-Regulated” value was 1.5125.

Each molecule was assayed on plasma proteins (assay: Proteins of Table 11 stably expressed in complete responders between days 1 and 28, Example 5 (Table 12)). Conditions: day 1 vs day 28.
Type: in vivo, human
With B1 the “Fold Change (D1 vs D28), proteins Up-Regulated in CR Compared to PD/Death” value was −1.05.
With B2 the “Fold Change (D1 vs D28), proteins Up-Regulated in CR Compared to PD/Death” value was −1.0356.
With B3 the “Fold Change (D1 vs D28), proteins Down-Regulated in CR Compared to PD/Death” value was −1.1284.
With B4 the “Fold Change (D1 vs D28), proteins Up-Regulated in CR Compared to PD/Death” value was 1.0265.
In the case of B5, the “Fold Change (D1 vs D28), proteins Up-Regulated in CR Compared to PD/Death” value is reported as −1.1215.
In the case of B6, the “Fold Change (D1 vs D28), proteins Down-Regulated in CR Compared to PD/Death” value is reported as 1.0197.
In the case of B7, the “Fold Change (D1 vs D28), proteins Down-Regulated in CR Compared to PD/Death” value is reported as −1.292.
For B8, the “Fold Change (D1 vs D28), proteins Down-Regulated in CR Compared to PD/Death” value was −1.0305.
With B9 the “Fold Change (D1 vs D28), proteins Down-Regulated in CR Compared to PD/Death” value was −1.1714.
With B10 the “Fold Change (D1 vs D28), proteins Down-Regulated in CR Compared to PD/Death” value was −1.0455.
With B11 the “Fold Change (D1 vs D28), proteins Up-Regulated in CR Compared to PD/Death” value was 1.0439.
With B12 the “Fold Change (D1 vs D28), proteins Up-Regulated in CR Compared to PD/Death” value was 1.0058.
